Assay results as given in PMC12618267, “GAGA zinc finger transcription factor searches chromatin by 1D–3D facilitated diffusion”.
For at least one entry, the source does not settle the construct or the ends of the probe. For part of these data: A weaker result is weaker than the reference pair of the same experiment. For part of these data: At least one verdict was read from the data and is not stated in words by the source. For part of these data: Protein sequences can lack the tags named with them.

How the values were obtained:
[1] = system: Cy3-GAF-DBD / GAF-DBD (Drosophila melanogaster); experiment: smFRET; conditions: 12.5 mM HEPES-KOH pH 7.6, 0.05 mM EDTA, 6.25 mM MgCl2, 5% glycerol, 50 mM NaCl, 50 ug/ml BSA, 0.05% NP-40, smFRET adds dextrose, Trolox, recombinant protein
[2] = system: T1, GAF-ΔPOZ (Drosophila melanogaster); experiment: EMSA; conditions: 0-20 nM protein, 3 nM DNA; 12.5 mM HEPES-KOH pH 7.6, 0.05 mM EDTA, 6.25 mM MgCl2, 5% glycerol, 50 mM NaCl, 50 ug/ml BSA, 0.05% NP-40; EMSA at room temperature; smFRET adds dextrose, Trolox; recombinant protein; protein details: SNAP, AF546; label: Cy5 at end
T1 sequence (looked up, limits assumed): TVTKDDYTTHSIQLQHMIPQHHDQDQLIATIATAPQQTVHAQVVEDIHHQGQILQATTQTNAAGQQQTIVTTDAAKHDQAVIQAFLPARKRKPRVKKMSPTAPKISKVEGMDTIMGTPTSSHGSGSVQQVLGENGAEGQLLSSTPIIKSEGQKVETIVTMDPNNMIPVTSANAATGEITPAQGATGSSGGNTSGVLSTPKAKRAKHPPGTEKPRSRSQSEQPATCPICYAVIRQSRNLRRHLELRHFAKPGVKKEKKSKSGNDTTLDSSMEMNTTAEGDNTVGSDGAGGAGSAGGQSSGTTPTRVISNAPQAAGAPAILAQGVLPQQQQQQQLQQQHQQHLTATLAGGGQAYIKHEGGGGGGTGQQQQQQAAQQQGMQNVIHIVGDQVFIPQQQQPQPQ

“TCATTTGTTTGGCAGAAAGAAAACTCTCAAAATTTCGTTGGCCGTTATAGCATATTCGTTTTGTGAGAGAGGGAGAGAGTACTATTGTTAACCCACAAGGTCGCACAGTAAACGGCACACTGTACGTGTTGCTTCGAGAGAGCGCGCCACCTGGTGTCGCGAAAAGAGCGCCGGAGTATAAATAGAG (double strand) [hsp70 tandem 187 bp (site 1 + site 2)]”: binds ([1]; 3 mM Mg2+, 3-fold longer nonspecific dwell, label: internal Cy7 and Cy5, biotin); binds ([1]; 6.25 mM Mg2+, overall dwell 3.34 s, site 1 0.25 s, site 2 0.11 s, label: internal Cy7 and Cy5, biotin).
“TCATTTGTTTGGCAGAAAGAAAACTCTCAAAATTTCGTTGGCCGTTATAGCATATTCGTTTTGTCCAGCACTGTAATAGTACTATTGTTAACCCACAAGGTCGCACAGTAAACGGCACACTGTACGTGTTGCTTCGAGAGAGCGCGCCACCTGGTGTCGCGAAAAGAGCGCCGGAGTATAAATAGAG (double strand) [hsp70 Motif 2 Only 187 bp]”: binds ([1]; site 2 FRET stable, mutated site 1 transient or undetectable, label: internal Cy7 and Cy5, biotin).
“TCATTTGTTTGGCAGAAAGAAAACTCTCAAAATTTCGTTGGCCGTTATAGCATATTCGTTTTGTGACTCTCCCTCTCTGTACTATTGTTAACCCACAAGGTCGCACAGTAAACGGCACACTGTACGTGTTGCTTCGAGAGAGCGCGCCACCTGGTGTCGCGAAAAGAGCGCCGGAGTATAAATAGAG (double strand) [hsp70 flipped 187 bp]”: binds ([1]; overall dwell 3.6 s, label: internal Cy7 and Cy5, biotin).
“GTTTTGTGAGTACGCGCTGTTGTACTATTGTTAACCCACAAGGTCGCACAGTAAACGGCACACTGTACGTGTTGCTTCTATACAGCGCGC (double strand) [Cy5-non-motif DNA 90 bp]”: binds more weakly ([1]; 0.2 nM protein, dwell 0.33 s (9-fold shorter), binding frequency 16-fold lower than cognate, label: 5' biotin strand 1, internal Cy5 strand 2).
“GTGTCATTTGTTTGGCAGAAAGAAAACTCGAGAAATTTCTCTGGCCGTTATTCTCTATTCGTTTTGTGACTCTCCCTCTCTGTACTATTGCTCTCTCACTCTGTCGCACAGTAAACGGCACACTGTTCTCGTTGCTTCGAGAGAGCGCGCCTCGAA (double strand) [hsp70 NCP DNA (free, 3-N-6)]”: binds [2].
